According to patent publication US8841413B2, “Antidiabetic compounds” (Cadila Healthcare Limited, priority 2006, dated 2014):
Part of at least one peptide drawing is inferred or uncertain, most often the ends.

Chains of the proteins cited; added tags and fusions are not shown. Residues count along the entry.
UniProt P47871, 26-477: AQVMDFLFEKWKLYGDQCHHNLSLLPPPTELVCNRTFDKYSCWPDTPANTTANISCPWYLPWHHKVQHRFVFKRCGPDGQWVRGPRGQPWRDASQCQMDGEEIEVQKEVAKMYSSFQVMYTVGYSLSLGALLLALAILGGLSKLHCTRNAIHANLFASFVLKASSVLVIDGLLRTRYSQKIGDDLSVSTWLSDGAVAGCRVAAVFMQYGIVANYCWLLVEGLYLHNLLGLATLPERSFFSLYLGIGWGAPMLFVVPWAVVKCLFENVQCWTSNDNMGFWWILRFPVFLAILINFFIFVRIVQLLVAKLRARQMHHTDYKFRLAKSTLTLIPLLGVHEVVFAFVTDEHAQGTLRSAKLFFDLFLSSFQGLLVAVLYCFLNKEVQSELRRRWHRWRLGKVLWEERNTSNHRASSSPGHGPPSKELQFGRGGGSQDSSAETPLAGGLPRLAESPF

How the values were obtained:
[1] = tested on: RIN5F (Rat Insulinoma) cells; assay: In vitro glucose-dependent insulin secretion (RIN5F cell assay); assay type: cell-based; details: 16.7 mM glucose load, mean ± S.D., n = 3
Method: After trypsinization, RIN5F cells were seeded at a concentration of 0.2×10^6·cells per well, in 12 well plates.
The supernatant was collected and the insulin amount was measured by ultra sensitive Rat insulin ELISA kit (Crystal Chem, Ill.). The protein was estimated in the supernatant using Bicinchoninic Acid kit, according to the manufacturer's protocol (Sigma Aldrich, Mo.). The total insulin content obtained in Pico-gram (pg) was divided with the total protein (μg) in order to normalize for differences in cell density between wells.

human glucagon receptor = biological target: T1, human glucagon receptor (Homo sapiens, UniProt P47871); assay: In vitro human glucagon antagonist activity (inhibition of cAMP production), CHO/human glucagon R cells; assay type: cell-based
T1 construct: The full-length cDNA was cloned in pcDNA3.1(Invitrogen); expressed in transfected cells
Method: CHO cells were grown in Ham's F12 medium containing L-Glutamine (2 mM), HEPES (25 mM), NaHCO3 (1.1 g/L) and supplemented with newborn Calf Serum (NBCS; 10%), Penicillin (50 U/ml (v/v)) and Streptomycin (50 ug/ml (v/v)). Cells were split every 3 days 1:8.
The full-length cDNA was cloned in pcDNA3.1(Invitrogen). […] Clones expressing the receptor were generated by G418 (800 μg/ml active, Sigma) selection. The stable clones were thereafter maintained at 500 ug/ml (G418). The selected clone was used between passages 9-25 for cAMP assays.
The trypsin was inactivated using Ham's F12 medium containing 10% NBCS and the cells were suspended in 2 ml of complete medium. […] The medium was aspirated off from the 12 well plate and the cells were washed once using Ham's F12 (plain). […] After the incubation; the medium was removed and cells were washed once with plain Ham's F12. Subsequently, the cells were lysed by adding 500 ul of ice cold 0.1 N HCl to each well and shaking for 30 minutes at 200 rpm. The cells were then scrapped, the lysate was collected in micro centrifuge tubes and centrifuged at 12000 rpm for 10 min to remove the debris. 300 ul of supernatant from each micro-centrifuge tube was then removed into a glass tube and dried under N2 for 30 min, for cAMP estimation. The total cAMP was estimated from the sample according to the manufacturer's protocol using Cyclic AMP immunoassay kit (R&D systems, Minneapolis: MN). The remaining supernatant is used to determine the protein concentration using micro BCA (Sigma). Data is calculated as percent of control (Vehicle: water) and expressed as Mean+SD.

[2] = 1 nM test compound (fourth concentration column, between 100 nM and 10 μM) with saturated concentration of glucagon peptide
[3] = 1 nM test compound with saturated concentration of glucagon peptide
[4] = 10 nM test compound with saturated concentration of glucagon peptide
[5] = 100 nM test compound with saturated concentration of glucagon peptide
[6] = 10 μM test compound with saturated concentration of glucagon peptide

SMILES	Insulin secretion ([1]; 0.1 nM test compd.) [pg/µg/h]	Insulin secretion ([1]; 1 nM test compd.) [pg/µg/h]	Insulin secretion ([1]; 10 nM test compd.) [pg/µg/h]	Human Glucagon receptor antagonistic activity, inhibition of cAMP production of Glucagon peptide (human glucagon receptor; [2]) [pmol/ml/μg prt]	Human Glucagon receptor antagonistic activity, inhibition of cAMP production of Glucagon peptide (human glucagon receptor; [3]) [pmol/ml/μg prt]	Human Glucagon receptor antagonistic activity, inhibition of cAMP production of Glucagon peptide (human glucagon receptor; [4]) [pmol/ml/μg prt]	Human Glucagon receptor antagonistic activity, inhibition of cAMP production of Glucagon peptide (human glucagon receptor; [5]) [pmol/ml/μg prt]	Human Glucagon receptor antagonistic activity, inhibition of cAMP production of Glucagon peptide (human glucagon receptor; [6]) [pmol/ml/μg prt]
CCc1cc(OC)ccc1-c1ccc(CC(NC(=O)[C@H](CC(=O)O)NC(=O)[C@H](CO)NC(=O)[C@@H](NC(=O)C(C)(Cc2ccccc2F)NC(=O)[C@@H](NC(=O)CNC(=O)[C@H](CCC(N)=O)NC(=O)C2(NC(=O)[C@@H](N)Cc3c[nH]cn3)CC2)[C@@H](C)O)[C@@H](C)O)C(=O)NC(Cc2ccc(-c3ccccc3C(F)(F)F)cc2)C(N)=O)cc1 (single isomer, unassigned) [compound 36]	16.8 ± 0.20	22.7 ± 0.29	36.6 ± 0.31	0	3 ± 0.12	1 ± 0.12	0	0
CCc1cc(OC)ccc1-c1ccc(CC(NC(=O)[C@H](CC(=O)O)NC(=O)[C@H](CO)NC(=O)[C@@H](NC(=O)[C@H](Cc2ccccc2)NC(=O)[C@@H](NC(=O)CNC(=O)[C@H](CCC(N)=O)NC(=O)C2(NC(=O)[C@@H](N)Cc3c[nH]cn3)CC2)[C@@H](C)O)[C@@H](C)O)C(=O)NC(Cc2ccc(-c3ccccc3C)nc2)C(N)=O)cc1 (single isomer, unassigned) [compound 18]	16.2 ± 0.13	22.4 ± 0.19	36.2 ± 0.09	0	0	0	0	0
CCc1cc(OC)ccc1-c1ccc(CC(NC(=O)[C@H](CC(=O)O)NC(=O)[C@H](CO)NC(=O)[C@@H](NC(=O)C(C)(Cc2ccccc2F)NC(=O)[C@@H](NC(=O)CNC(=O)[C@H](CCC(N)=O)NC(=O)C2(NC(=O)[C@@H](N)Cc3c[nH]cn3)CC2)[C@@H](C)O)[C@@H](C)O)C(=O)NC(Cc2ccc(-c3ccccc3C)cc2)C(N)=O)cc1 (single isomer, unassigned) [compound 33]	16.4 ± 0.12	22.7 ± 0.17	36.6 ± 0.05	0	0	0	0	0
CCc1cc(OC)ccc1-c1ccc(CC(NC(=O)[C@H](CC(=O)O)NC(=O)[C@H](CO)NC(=O)[C@@H](NC(=O)C(C)(Cc2ccccc2F)NC(=O)[C@@H](NC(=O)CNC(=O)[C@H](CCC(N)=O)NC(=O)C2(NC(=O)[C@@H](N)Cc3c[nH]cn3)CC2)[C@@H](C)O)[C@@H](C)O)C(=O)NC(Cc2ccc(-c3ccccc3F)cc2)C(N)=O)cc1 (single isomer, unassigned) [compound 35]	17.1 ± 0.11	23.1 ± 0.16	37.0 ± 0.29	0	5 ± 0.04	3 ± 0.15	1 ± 0.15	0
CCc1cc(OC)ccc1-c1ccc(CC(NC(=O)[C@H](CC(=O)O)NC(=O)[C@H](CO)NC(=O)[C@@H](NC(=O)[C@H](Cc2ccccc2)NC(=O)[C@@H](NC(=O)CNC(=O)[C@H](CCC(N)=O)NC(=O)C2(NC(=O)[C@@H](N)Cc3c[nH]cn3)CC2)[C@@H](C)O)[C@@H](C)O)C(=O)NC(Cc2ccc(-c3ccccc3F)cc2)C(N)=O)cc1 (single isomer, unassigned) [compound 19]	17.1 ± 0.15	23.1 ± 0.12	37.0 ± 0.19	0	5 ± 0.04	3 ± 0.02	1 ± 0.11	0
CCc1cc(OC)ccc1-c1ccc(CC(NC(=O)[C@H](CC(=O)O)NC(=O)[C@H](CO)NC(=O)[C@@H](NC(=O)[C@H](Cc2ccccc2)NC(=O)[C@@H](NC(=O)CNC(=O)[C@H](CCC(N)=O)NC(=O)C(C)(C)NC(=O)[C@@H](N)Cc2c[nH]cn2)[C@@H](C)O)[C@@H](C)O)C(=O)NC(Cc2ccc(-c3ccccc3F)cc2)C(N)=O)cc1 (single isomer, unassigned) [compound 15]	15.6 ± 0.33	21.8 ± 0.16	35.6 ± 0.26	0	6 ± 0.01	5 ± 0.02	2 ± 0.13	0
CCc1cc(OC)ccc1-c1ccc(CC(NC(=O)[C@H](CC(=O)O)NC(=O)[C@H](CO)NC(=O)[C@@H](NC(=O)C(C)(Cc2ccccc2F)NC(=O)[C@@H](NC(=O)CNC(=O)[C@H](CCC(N)=O)NC(=O)C(C)(C)NC(=O)[C@@H](N)Cc2c[nH]cn2)[C@@H](C)O)[C@@H](C)O)C(=O)NC(Cc2ccc(-c3ccccc3F)cc2)C(N)=O)cc1 (single isomer, unassigned) [compound 31]	15.6 ± 0.31	21.8 ± 0.16	35.6 ± 0.28	0	6 ± 0.05	5 ± 0.04	2 ± 0.16	0
CCc1cc(OC)ccc1-c1ccc(CC(NC(=O)[C@H](CC(=O)O)NC(=O)[C@H](CO)NC(=O)[C@@H](NC(=O)[C@H](Cc2ccccc2)NC(=O)[C@@H](NC(=O)CNC(=O)[C@H](CCC(N)=O)NC(=O)C(C)(C)NC(=O)[C@@H](N)Cc2c[nH]cn2)[C@@H](C)O)[C@@H](C)O)C(=O)NC(Cc2ccc(-c3ccccc3C)nc2)C(N)=O)cc1 (single isomer, unassigned) [compound 14]	15.4 ± 0.14	21.2 ± 0.18	35.6 ± 0.17	3 ± 0.22	9 ± 0.11	6 ± 0.12	5 ± 0.14	0
